Source: PMC8764035
These are yes or no findings as the source states them, for the method shown. Binding seen in cells or lysates may run through a third protein.

Chains of the proteins cited; added tags and fusions are not shown.
UniProt Q16665: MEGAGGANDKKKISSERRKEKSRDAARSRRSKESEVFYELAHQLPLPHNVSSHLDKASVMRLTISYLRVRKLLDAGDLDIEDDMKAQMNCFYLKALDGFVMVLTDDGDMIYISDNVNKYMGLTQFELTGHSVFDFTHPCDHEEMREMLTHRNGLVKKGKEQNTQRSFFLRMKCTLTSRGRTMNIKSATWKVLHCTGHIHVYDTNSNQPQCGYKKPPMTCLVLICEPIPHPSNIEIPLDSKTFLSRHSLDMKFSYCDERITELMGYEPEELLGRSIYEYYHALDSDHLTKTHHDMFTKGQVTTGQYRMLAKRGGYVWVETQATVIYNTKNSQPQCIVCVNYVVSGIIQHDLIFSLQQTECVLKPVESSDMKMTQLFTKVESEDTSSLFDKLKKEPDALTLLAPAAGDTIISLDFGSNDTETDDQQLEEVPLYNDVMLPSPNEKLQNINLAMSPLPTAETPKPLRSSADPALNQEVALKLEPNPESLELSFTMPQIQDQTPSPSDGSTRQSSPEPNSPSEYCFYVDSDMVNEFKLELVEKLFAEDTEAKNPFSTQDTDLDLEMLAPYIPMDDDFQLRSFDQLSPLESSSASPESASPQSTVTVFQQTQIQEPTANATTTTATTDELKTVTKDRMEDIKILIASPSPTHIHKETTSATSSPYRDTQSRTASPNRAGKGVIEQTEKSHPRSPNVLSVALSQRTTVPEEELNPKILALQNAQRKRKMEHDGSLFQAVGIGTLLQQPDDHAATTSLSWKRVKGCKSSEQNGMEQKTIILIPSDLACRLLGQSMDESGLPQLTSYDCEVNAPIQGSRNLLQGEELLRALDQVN

Biological target: T1, Epididymal protein 3A (EDDM3A) (human (endogenous in BGC-823 and AGS)) (UniProt Q14507)
T1 sequence: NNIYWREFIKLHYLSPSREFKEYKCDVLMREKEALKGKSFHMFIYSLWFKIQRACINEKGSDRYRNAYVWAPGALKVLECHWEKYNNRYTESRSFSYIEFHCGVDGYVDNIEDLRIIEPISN
Test: co-IP; GC cell lysate (extracts from BGC-823 and AGS cells) mixed with protein A beads containing anti-EDDM3A or anti-HIF-1α antibody, rotated at 4 °C for 3 h, washed three times with cold lysis buffer, analysed by western blot

binding: no binding
Substance: HIF-1α (from UniProt Q16665 1-826)
